Experimental data: PubChem BioAssay AID1259299 (Sanger Institute, 2017)

Purpose: 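Kinases and colorectal mutated genes needed by colorectal cancer cells, with or without drugs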 (primary screen)
Cells: human CAR1 colorectal cancer cells
Reagents: siRNA pool against human genes
Conditions: anchor drug BYL719 1 µM, cetuximab 5 µg/ml or trametinib 10 nM, or DMSO vehicle alone; exposure length not given
Read-out: 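Mean replicate viability versus non-targeting controls, turned into robust z-scores, plus drug synergy scores for BYL719, cetuximab and trametinib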
Scale: viability robust z-score, knock-down alone: higher = more viable cells
Rule for the call: 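Essential when viability robust z-score with knock-down alone (DMSO) is below -3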
Calls: active = essential (knock-down alone); inactive = no change
Here is one part, drawn at random, of 794 deposited reagents. 9 of all reagents (1.1%) count as active. 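Calls rest on knock-down alone; synergy scores play no part in calls, and no gene passed the synergy cut.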 Further read-outs or replicates are left out here. No sequences are given here. Not stated in the record: the amount of reagent, the time to read-out.

no.	target gene	viability robust z-score, knock-down alone	activity call
1	DYRK2	0.789	inactive
2	FXR1	0.789	inactive
3	JAK3	-0.225	inactive
4	PIK3CG	-0.532	inactive
5	HK3	-1.51	inactive
6	IP6K1	0.789	inactive
7	TYK2	0.0733	inactive
8	WT1	0.789	inactive
9	WHR1	0.789	inactive
10	STK38	-0.238	inactive
11	SIK1	-0.277	inactive
12	ACO1	0.308	inactive
13	ATRX	0.789	inactive
14	STK26	0.789	inactive
15	SRP72	-0.201	inactive
16	POMK	0.707	inactive
17	GSK3B	0.404	inactive
18	IKBKG	0.42	inactive
19	DYRK3	0.46	inactive
20	CALM1	0.789	inactive
21	MAK	-1.55	inactive
22	ITPKC	0.789	inactive
23	RBKS	0.789	inactive
24	RIPK4	-0.454	inactive
25	MAP3K11	0.789	inactive
26	STRADB	-1.01	inactive
27	CHEK1	-1.39	inactive
28	ACVR2A	0.789	inactive
29	PSKH2	-1.82	inactive
30	STK36	-0.306	inactive
31	DLG3	0.789	inactive
32	RPS6KA1	0.576	inactive
33	MAPKAPK5	-1.16	inactive
34	NME3	0.789	inactive
35	ADGRL2	0.789	inactive
36	PIP5KL1	-0.00709	inactive
37	GNE	0.591	inactive
38	PRKY	-1.29	inactive
39	CLK3	-1.39	inactive
40	PANK4	-2.19	inactive
41	CDK19	-1.12	inactive
42	TNNI3K	-1.76	inactive
43	SIK2	0.789	inactive
44	ITPK1	-1.5	inactive
45	NTRK2	0.789	inactive
46	SRGAP3	0.789	inactive
47	PHKA1	0.573	inactive
48	NUAK1	0.117	inactive
49	PRPS1	-0.913	inactive
50	CDK14	-0.928	inactive

Reformatted: results already given
PRKY | viability robust z-score, knock-down alone: -1.29; activity call: inactive
CLK3 | viability robust z-score, knock-down alone: -1.39; activity call: inactive
PANK4 | viability robust z-score, knock-down alone: -2.19; activity call: inactive
CDK19 | viability robust z-score, knock-down alone: -1.12; activity call: inactive
TNNI3K | viability robust z-score, knock-down alone: -1.76; activity call: inactive
SIK2 | viability robust z-score, knock-down alone: 0.789; activity call: inactive
